Taken from: PubChem BioAssay AID1259331 (Drosophila RNAi Screening Center, 2017)
Here is an unselected part of about 3,100 reagents tested. In the full data, 126 (4.1%) were called active. 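Calls are per reagent; zinc was so toxic that few knock-downs lowered ATP further, so most hits raise ATP.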 The raw values are shown without normalisation. The numbers tell different reagents against one gene apart. A plus sign joins genes that one reagent is predicted to hit. Not stated in the record: the amount of reagent.

- Screen: 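Knock-downs that alter ATP level after a high zinc chloride dose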 (primary screen)
- Cell system: Drosophila S2R+ cells
- Knock-down reagent: long dsRNA against Drosophila genes
- Duration: 5 days (4 days knock-down, then 1 day zinc)
- Challenge: zinc chloride at 15 mM final level for 1 day
- Measurement: 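Luminescent ATP assay standing in for viability; Z score is the mean over three replicate plates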
- Reading the numbers: mean Z score: higher = more ATP than other wells, better survival under zinc; ATP luminescence: higher = more ATP, more viable cells
- Call rule: 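a reagent is called a hit when its Z score is above 1.5 or below -1.5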
- Calls: active = hit, ATP up or down; inactive = not a hit

Gr68a (Gustatory receptor 68a) #1 — mean Z score = -0.184; ATP luminescence, replicate 1 = 81916; ATP luminescence, replicate 2 = 53481; outcome = inactive
Gr68a (Gustatory receptor 68a) #2 — mean Z score = -0.114; ATP luminescence, replicate 1 = 52965; ATP luminescence, replicate 2 = 56362; outcome = inactive
CG4462 #1 — mean Z score = -0.276; ATP luminescence, replicate 1 = 40793; ATP luminescence, replicate 2 = 45988; outcome = inactive
CG4462 #2 — mean Z score = -1; ATP luminescence, replicate 1 = 44635; ATP luminescence, replicate 2 = 47274; outcome = inactive
CG9308 #1 — mean Z score = 0.171; ATP luminescence, replicate 1 = 52590; ATP luminescence, replicate 2 = 37553; outcome = inactive
CG9308 #2 — mean Z score = 0.175; ATP luminescence, replicate 1 = 63153; ATP luminescence, replicate 2 = 65056; outcome = inactive
CG9663 — mean Z score = 0.198; ATP luminescence, replicate 1 = 56705; ATP luminescence, replicate 2 = 61455; outcome = inactive
Vha100-2 (Vacuolar H[+] ATPase 100kD subunit 2) #1 — mean Z score = 0.803; ATP luminescence, replicate 1 = 55625; ATP luminescence, replicate 2 = 56842; outcome = inactive
Vha100-2 (Vacuolar H[+] ATPase 100kD subunit 2) #2 — mean Z score = 0.277; ATP luminescence, replicate 1 = 56602; ATP luminescence, replicate 2 = 74884; outcome = inactive
Itpr (Inositol 1,4,5,-trisphosphate receptor) #1 — mean Z score = -0.25; ATP luminescence, replicate 1 = 69653; ATP luminescence, replicate 2 = 57373; outcome = inactive
Itpr (Inositol 1,4,5,-trisphosphate receptor) #2 — mean Z score = 0.4; ATP luminescence, replicate 1 = 68624; ATP luminescence, replicate 2 = 66463; outcome = inactive
CG31717 — mean Z score = -0.0633; ATP luminescence, replicate 1 = 42508; ATP luminescence, replicate 2 = 43519; outcome = inactive
Tsp3A (Tetraspanin 3A) #1 — mean Z score = -0.613; ATP luminescence, replicate 1 = 54304; ATP luminescence, replicate 2 = 57511; outcome = inactive
Tsp3A (Tetraspanin 3A) #2 — mean Z score = -0.167; ATP luminescence, replicate 1 = 57940; ATP luminescence, replicate 2 = 50142; outcome = inactive
CG10444 #1 — mean Z score = -0.672; ATP luminescence, replicate 1 = 25005; ATP luminescence, replicate 2 = 27751; outcome = inactive
CG10444 #2 — mean Z score = -0.676; ATP luminescence, replicate 1 = 51355; ATP luminescence, replicate 2 = 49692; outcome = inactive
sing + Axs #1 — mean Z score = -0.318; ATP luminescence, replicate 1 = 42131; ATP luminescence, replicate 2 = 41431; outcome = inactive
sing + Axs #2 — mean Z score = -0.135; ATP luminescence, replicate 1 = 48063; ATP luminescence, replicate 2 = 60958; outcome = inactive
Tsp42Ee (Tetraspanin 42Ee) #1 — mean Z score = 2.33; ATP luminescence, replicate 1 = 1.17e5; ATP luminescence, replicate 2 = 1.12e5; outcome = active
Tsp42Ee (Tetraspanin 42Ee) #2 — mean Z score = -0.429; ATP luminescence, replicate 1 = 46160; ATP luminescence, replicate 2 = 63564; outcome = inactive
Polr3I (RNA polymerase III subunit I) — ATP luminescence, replicate 1 = 5.87e5; ATP luminescence, replicate 2 = 5.71e5; outcome = inactive
CG3397 #1 — mean Z score = -0.242; ATP luminescence, replicate 1 = 43931; ATP luminescence, replicate 2 = 42216; outcome = inactive
CG3397 #2 — mean Z score = -0.0107; ATP luminescence, replicate 1 = 61938; ATP luminescence, replicate 2 = 59792; outcome = inactive
pyx (pyrexia) #1 — mean Z score = 1.49; ATP luminescence, replicate 1 = 57538; ATP luminescence, replicate 2 = 61249; outcome = inactive
pyx (pyrexia) #2 — mean Z score = -0.448; ATP luminescence, replicate 1 = 56276; ATP luminescence, replicate 2 = 39919; outcome = inactive

In a second layout: entries from further up
Tsp3A (Tetraspanin 3A) #2
- mean Z score: -0.167
- ATP luminescence, replicate 1: 57940
- ATP luminescence, replicate 2: 50142
- outcome: inactive

CG10444 #1
- mean Z score: -0.672
- ATP luminescence, replicate 1: 25005
- ATP luminescence, replicate 2: 27751
- outcome: inactive

CG10444 #2
- mean Z score: -0.676
- ATP luminescence, replicate 1: 51355
- ATP luminescence, replicate 2: 49692
- outcome: inactive
